Results: patent publication US7160881B2, “Crystalline modifications of 2-(3,5-bis-trifluoromethyl-phenyl)-N-[6-(1,1-dioxo-1 λ6-thiomorpholin-4-yl)-4-(4-fluoro-2-methyl-phenyl)-pyridin-3-yl]-N-methyl-isobutyramide” (Hoffmann-La Roche Inc., priority 2003, dated 2007)
Some of these results come from one statement about several compounds together.

Assay: Dynamic Vapor Sorption (DVS)
Assay type: physicochemical
Details: from 0 to 90% RH
From the text: Dynamic Vapor Sorption (DVS)

Row | Structure (SMILES) | reversible uptake of water (DVS) (listed as modification B) [%-w/w] | reversible uptake of water (DVS) (listed as modification C) [%-w/w]
1 | Cc1cc(F)ccc1-c1cc(N2CCS(=O)(=O)CC2)ncc1N(C)C(=O)C(C)(C)c1cc(C(F)(F)F)cc(C(F)(F)F)c1 [Form B, 2-(3,5-bis-trifluoromethyl-phenyl)-N-[6-(1,1-dioxo-1λ^6-thiomorpholin-4-yl)-4-(4-fluoro-2-methyl-phenyl)-pyridin-3-yl]-N-methyl-isobutyramide] | < 0.1 | 
2 | Cc1cc(F)ccc1-c1cc(N2CCS(=O)(=O)CC2)ncc1N(C)C(=O)C(C)(C)c1cc(C(F)(F)F)cc(C(F)(F)F)c1 [Form C, 2-(3,5-bis-trifluoromethyl-phenyl)-N-[6-(1,1-dioxo-1λ^6-thiomorpholin-4-yl)-4-(4-fluoro-2-methyl-phenyl)-pyridin-3-yl]-N-methyl-isobutyramide] |  | < 0.1
